Laboratory results published in PubChem BioAssay AID489037 (National Center for Advancing Translational Sciences (NCATS), 2010).
The shares of active, inactive and inconclusive entries below differ from those in the screen. A potency beside an inconclusive call is a rough fit, not a confirmed value. Some structures have more than one record in an assay (separate samples or runs), and their calls can disagree. Calls of active or inactive are those of the source. The call rests on the fitted dose curve; in most records, active means well fitted inhibition curve with a large enough effect; inconclusive means small, poorly fitted or top-dose-only effect, or effect the other way; inactive means no such curve, though single readings can be large or run the other way.

Amino acid sequences for entries named in this document (tags omitted). A change or cut given only in a name is not applied to a line headed by its entry.
UniProt P51450: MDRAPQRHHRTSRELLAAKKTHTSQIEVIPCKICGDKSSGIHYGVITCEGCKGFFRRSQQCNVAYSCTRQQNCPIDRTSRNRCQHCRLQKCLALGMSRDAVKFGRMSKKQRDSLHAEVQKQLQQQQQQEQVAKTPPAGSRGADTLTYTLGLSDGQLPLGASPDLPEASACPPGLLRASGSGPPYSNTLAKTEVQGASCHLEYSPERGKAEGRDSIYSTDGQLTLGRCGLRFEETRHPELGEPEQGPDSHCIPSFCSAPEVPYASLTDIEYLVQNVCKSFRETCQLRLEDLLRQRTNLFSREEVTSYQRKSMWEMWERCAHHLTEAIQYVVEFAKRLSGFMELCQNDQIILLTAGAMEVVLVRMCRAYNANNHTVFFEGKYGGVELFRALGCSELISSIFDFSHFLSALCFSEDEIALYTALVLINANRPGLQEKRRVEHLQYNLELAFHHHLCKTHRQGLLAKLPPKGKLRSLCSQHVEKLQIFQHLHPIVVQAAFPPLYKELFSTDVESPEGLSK

Each compound was assayed against Nuclear receptor ROR-gamma (Mus musculus) (UniProt P51450) (assay: Secondary confirmation assay for inhibitors of ROR gamma transcriptional activity). Settings: Drosophila S2 Gal4-RORgamma UAS-luciferase reporter, 20 h; activity change, negative = inhibition: at 92.2 µM (top of the series).
Description: NIH Molecular Libraries Probe Production Network [MLPCN] NIH Chemical Genomics Center [NCGC] MLPCN Grant: R03 DA026211-01 Assay Provider: Dan Littman, New York University Keywords: NIH Roadmap, MLPCN, MLI, MLSMR, qHTS, NCGC, qHTS, nuclear hormone receptor, retinoic acid-related orphan receptor, ROR gamma Assay Overview: The retinoic acid-related orphan receptor (ROR) gamma is a transcription factor that has a central role in the differentiation of Th17 cells, a subset of T helper cells that secrete the inflammatory cytokines IL-17, IL-17F, and IL-22. Th17 cells have been implicated in graft versus host disease, autoimmune disease and asthma. ROR gamma is induced in naive T helper cells in the presence of TGF-beta combined with IL-6, IL-21, or IL-23, and thereafter directs the expression of the Th17 lineage cytokines. To study the mechanism of action of ROR gamma, an insect cell-based assay was screened. This Drosophila Schneider cell line was stably transfected with two vectors: a gene expressing a fusion of the Gal4 DNA binding domain and ROR gamma transactivation domain under the control of the metallothionine promoter and a Photinus luciferase reporter regulated by the Gal4 binding site enhancer, UAS. […] Small molecule inhibitors of ROR gamma activity are detected by a decrease in luciferase reporter activity.
Assay Protocol Summary: For screening, 600 cells in 4 uL/well were dispensed into white solid 1536-well plates (Grenier) using a solenoid-based dispenser. Following transfer of 23 nL compound or DMSO vehicle by a pin tool, the plates were incubated 1 hr at ambient temperature, and 1 uL/well copper sulfate (700 uM final concentration) was added. The plates were centrifuged 15 s at 1000 RPM and incubated 20 hr at ambient temperature. After addition of 1.5 uL Photinus luciferase detection reagent, the plates were incubated 10 min at ambient temperature and then read by an ViewLux (Perkin Elmer) to detect luminescence. Keywords: NIH Roadmap, MLPCN, MLI, MLSMR, qHTS, NCGC, qHTS, nuclear hormone receptor, retinoic acid-related orphan receptor, ROR gamma

Potency, active:
O=S(=O)(c1ccc(NC(=S)N/N=C/c2ccc(Oc3ccccc3)cc2)cc1)N1CCOCC1 1.15 µM, Cc1ccc(-c2cn(-c3ccccc3)c3[n+]2CCCS3)cc1 28.8 µM, COc1cc(OC)c(C(c2ccccc2)C(C)(C)C(=O)N2CC(C)CC(C)C2)c(OC)c1 (stereo not given) 5.12 µM, CC(C)(C)c1ccc(S(=O)(=O)Nc2ccc(C(O)(C(F)(F)F)C(F)(F)F)cc2)cc1 20.4 µM, COc1cc(O)c(C(CC(=O)N2CCC(C)CC2)c2ccc(C)cc2)c(OC)c1 (stereo not given) 14.4 µM, O=C(NC(=S)Nc1nc(-c2ccccc2)cs1)c1cccnc1 5.12 µM, COc1cc(O)c(C(CC(=O)N2CCCC(C)C2)c2ccccc2)c(OC)c1 (stereo not given) 7.24 µM, Cc1cc(C)c2[nH]c(C(=O)Nc3ccc4c(c3)OCO4)cc2c1 0.257 µM

Potency, inactive:
COc1ccc(C(CC(=O)N2CCCC(C)C2)c2c(O)cc(OC)cc2OC)c(OC)c1 (stereo not given), COc1cc(O)c(C(CC(=O)NC2CCCc3ccccc32)c2ccc3c(c2)OCO3)c(OC)c1 (stereo not given), COc1cc(O)c(C(CC(=O)N2CCCC(C#N)C2)c2ccc3c(c2)OCO3)c(OC)c1 (stereo not given), COc1cc(O)c(C(CC(=O)N2CCCC(C)C2)c2ccc(-c3ccccc3)cc2)c(OC)c1 (stereo not given), COc1cc(O)c(C(CC(=O)N2CCCC(CO)C2)c2ccc3c(c2)OCO3)c(OC)c1 (stereo not given), CCC(=O)C1CCCN(C(=O)CC(c2ccc3c(c2)OCO3)c2c(O)cc(OC)cc2OC)C1 (stereo not given), COc1cc(OC)c2c(c1)OC(=O)CC2c1ccc2c(c1)OCO2 (stereo not given), COc1cc(O)c(C(CC(=O)N2CCCC2)c2ccc3c(c2)OCO3)c(OC)c1 (stereo not given), Cc1ccc(O)c(C(CC(=O)NC2CCCCC2)c2ccccc2)c1 (stereo not given)

Potency, inconclusive:
CCCC1CCN(C(=O)CC(c2ccc3c(c2)OCO3)c2c(O)cc(OC)cc2OC)C1 (stereo not given) 72.4 µM [inhibitor, single point], Cc1cc(C)c(O)c(C(CC(=O)N2CCCC(C)C2)c2ccc3c(c2)OCO3)c1 (stereo not given) 64.5 µM [inhibitor, single point], COc1cc(O)c(C(CC(=O)N2CCC[C@@H](C)C2)c2ccc3c(c2)OCO3)c(OC)c1 (stereo not given in full) 40.7 µM [inhibitor, partial curve, poor fit], COc1cc(O)c(C(CC(=O)N2CCOCC2)c2ccc(C)cc2)c(OC)c1 (stereo not given) 10.2 µM [inhibitor, partial curve, poor fit], COc1cc(O)c(C(CC(=O)N2CCC(c3ccccc3)CC2)c2ccc(OC)c(OC)c2)c(OC)c1 (stereo not given) 22.9 µM [activator, full curve], COC1CCN(C(=O)c2cc(COc3ccc(-n4cncn4)cc3)on2)CC1 40.7 µM [activator, partial curve, poor fit], COc1cc(O)c(C(CC(=O)N2CCN(c3ccc(F)cc3)CC2)c2ccc3c(c2)OCO3)c(OC)c1 (stereo not given) 3.23 µM [activator, full curve, poor fit], COc1ccccc1C(CC(=O)N1CCCC(C)C1)c1ccccc1 (stereo not given) 72.4 µM [inhibitor, single point], CC1CCCN(C(=O)CC(c2ccc3c(c2)OCO3)c2ccc3ccccc3c2O)C1 (stereo not given) 72.4 µM [activator, single point], COc1cc(O)c(CCC(=O)N2CCCC(C)C2)c(OC)c1 (stereo not given) 0.229 µM [activator, partial curve, poor fit], CC1CCCN(C(=O)CC(c2ccc3c(c2)OCO3)c2ccc(F)cc2O)C1 (stereo not given) 72.4 µM [inhibitor, single point], c1ccc(Cn2c(-c3ccccc3)c[n+]3c2SCCC3)cc1 40.7 µM [activator, partial curve, poor fit], CCc1ccc(O)c(C(CC(=O)N2CCCC(C)C2)c2ccc3c(c2)OCO3)c1 (stereo not given) 25.7 µM [inhibitor, partial curve, poor fit], Cc1cccc(C(CC(=O)NCc2ccco2)c2ccccc2)c1O (stereo not given) 36.3 µM [activator, partial curve], COc1ccccc1C(CC(=O)N1CCCCC1)c1ccccc1 (stereo not given) 40.7 µM [activator, partial curve, poor fit], CCCCNC(=O)CC(c1ccc2c(c1)OCO2)c1c(O)cc(OC)cc1OC (stereo not given) 28.8 µM [inhibitor, partial curve, poor fit], Cc1cccc(C(CC(=O)NCCc2ccccc2)c2ccccc2)c1O (stereo not given) 16.2 µM [activator, single point], CCOc1ccc(O)c(C(CC(=O)N2CCCC(C)C2)c2ccc3c(c2)OCO3)c1 (stereo not given) 16.2 µM [inhibitor, partial curve, poor fit], COc1cc(O)c(C(CC(=O)Nc2ccc(C)cc2)c2ccc3c(c2)OCO3)c(OC)c1 (stereo not given) 45.7 µM [inhibitor, partial curve, poor fit], CC1CCCN(C(=O)CC(c2ccc3c(c2)OCO3)c2c(O)cccc2Cl)C1 (stereo not given) 72.4 µM [inhibitor, single point], Cc1ccc(C(CC(=O)N2CCCC(C)C2)c2ccc3c(c2)OCO3)c(O)c1 (stereo not given) 57.5 µM [inhibitor, single point]

Activity change, negative = inhibition, inactive:
CC1=C(\C=C/C(C)=C/C=C\C(C)=C\C(=O)O)C(C)(C)CCC1 -12.4% [at 20 µM]

Activity change, negative = inhibition, inconclusive:
Cc1cccc(O)c1C(CC(=O)N1CCCC(C)C1)c1ccc2c(c1)OCO2 (stereo not given) -35.8% [inhibitor]
